Data taken from the supplement of paper PMC7024190.
Counter-ions that a name gives are not always drawn. Some of the results follow. Repeats in this data set agree poorly, so a single value says little.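 The cells were human embryonic kidney cells carrying a Renilla luciferase gene, driven by the HSV-TK promoter, on a plasmid put in briefly by transfection. This is the first-round screen of about ten thousand compounds, looking for ones that raise reporter output.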

tested on: HEK 293FT; assay: log relative Renilla luciferase luminescence (reporter expression vs reference, reference not stated) (log (base not stated)); higher = higher recombinant reporter expression; conditions: 10 µM; time after transfection 48 h

| Compound | log |
| --- | --- |
| O=C(CCNNC(=O)c1ccncc1)NCc1ccccc1 | 0.214 |
| CNS(=O)(=O)Cc1ccc2[nH]cc(CCN(C)C)c2c1 | -0.151 |
| C=C1/C(=C\C=C2/CCC[C@]3(C)[C@@H]([C@H](C)/C=C/[C@@H](O)C4CC4)CC[C@@H]23)C[C@@H](O)C[C@@H]1O | -0.0635 |
| CC(=O)O[C@]1(C(C)=O)CC[C@H]2[C@@H]3C=C(C)C4=CC(=O)CC[C@]4(C)[C@H]3CC[C@@]21C | -1.45 |
| CN1CCC(=C2c3ccccc3C=Cc3ccccc32)CC1 | -0.76 |
| CNNCc1ccc(C(=O)NC(C)C)cc1 | -0.042 |
| CC(C)/N=c1\cc2n(-c3ccc(Cl)cc3)c3ccccc3nc-2cc1Nc1ccc(Cl)cc1 | -0.0993 |
| COc1nc(C)nc(Cl)c1NC1=NCCN1 | -0.174 |
| C[C@]12CC[C@@H]3c4ccc(O)cc4CC[C@H]3[C@@H]1CC[C@@H]2O | 0.0839 |
| O=C1N(c2ccccc2)c2ccccc2C1(Cc1ccncc1)Cc1ccncc1 | 0.0603 |
| Cc1occc(=O)c1O | 0.116 |
| COc1ccc(-c2oc3c(CC=C(C)C)c(O[C@@H]4O[C@H](CO)[C@@H](O)[C@H](O)[C@H]4O)cc(O)c3c(=O)c2O[C@@H]2O[C@@H](C)[C@H](O)[C@@H](O)[C@H]2O)cc1 | 0.0173 |
| CC[C@@H]1C(=O)OC[C@@H]1Cc1cncn1C | 0.233 |
| CC1=C(C(=O)O)N2C(=O)[C@@H](NC(=O)[C@H](N)c3ccccc3)[C@H]2SC1 [Cephalexin monohydrate] | -0.185 |
| COc1ccccc1OCC(O)CN1CCN(CC(=O)Nc2c(C)cccc2C)CC1 (centres undefined) [Ranolazine dihydrochloride] | -0.185 |
| O=C(c1ccc(F)cc1)C1CCN(CCn2c(=S)[nH]c3ccccc3c2=O)CC1 [Altanserin] | -0.321 |
| O=c1c(-c2ccccc2)c1-c1ccccc1 [diphenylcyclopropenone] | 0.0644 |
| N#Cc1ccc(C(c2ccc(C#N)cc2)n2cncn2)cc1 | -0.00859 |
| COc1cc(C(=O)NC2CCCNC2)cc(OC)c1OC (centres undefined) | -0.226 |
| O=C(NCCN1CCOCC1)c1ccc(Cl)cc1 [4-Chloro-N-(2-morpholin-4-yl-ethyl)-benzamide] | 0.015 |

| Compound | log |
| --- | --- |
| COCCCC/C(=N\OCCN)c1ccc(C(F)(F)F)cc1 [Fluvoxamine] | -0.00376 |
| CCN1CCN(c2cc3c(cc2F)c(=O)c(C(=O)O)cn3C2CC2)CC1 | 0.162 |
| CC(=O)NC[C@H]1CN(c2ccc(N3CCOCC3)c(F)c2)C(=O)O1 | -0.337 |
| Nc1nc(N)nc(-c2cc(Cl)ccc2Cl)n1 | -0.223 |
| COc1cc(/C=C/c2ccc(O)cc2)cc(OC)c1 | -0.376 |
| CCOC(=O)O[C@]1(C(=O)OCCl)CC[C@H]2[C@@H]3CCC4=CC(=O)C=C[C@]4(C)[C@H]3[C@@H](O)C[C@@]21C | -0.781 |
| NC(N)=NC(=O)c1nc(Cl)c(N)nc1N | 0.0618 |
| Fc1ccc([C@@H]2CCNC[C@H]2COc2ccc3c(c2)OCO3)cc1 | -1.34 |
| CN1[C@@H](CC(=O)c2ccccc2)CCC[C@H]1C[C@H](O)c1ccccc1 | -0.194 |
| CNC(=C[N+](=O)[O-])NCCSCc1csc(CN(C)C)n1 | 0.0639 |
| Nc1nnc(-c2cccc(Cl)c2Cl)c(N)n1 | 0.338 |
| Cc1cn([C@H]2C=C[C@@H](CO)O2)c(=O)[nH]c1=O | -0.0116 |
| CN(CCO)CC(O)Cn1cnc2c1c(=O)n(C)c(=O)n2C (centres undefined) | 0.171 |
| COc1ccc(/C=C/C(=O)Nc2ccccc2C(=O)O)cc1OC | 0.0341 |
| COc1cc(-c2ccc(=O)[nH]n2)ccc1OC(F)F | 0.184 |
| CCN(CC)C(=O)C1(c2ccccc2)CC1CN (centres undefined) [Milnacipran] | -0.0854 |
| CC12CC3CC(C)(C1)CC(N)(C3)C2 | 0.0207 |
| CC=CC(=O)N(CC)c1ccccc1C | 0.311 |
| CC(C)C[C@H](NC(=O)[C@@H](O)[C@H](N)Cc1ccccc1)C(=O)O | -0.0897 |

Taken from the results shown (2 entries):

| Compound | log |
| --- | --- |
| Nc1nnc(-c2cccc(Cl)c2Cl)c(N)n1 | 0.338 |
| Cc1cn([C@H]2C=C[C@@H](CO)O2)c(=O)[nH]c1=O | -0.0116 |
